# From paper PMC12805590
# Results are given in words; binding and its absence hold for the method and conditions named. In cells and extracts the contact can be indirect. Here binding means that the protein was enriched with, or labelled near, the bait; the list need not be complete.
# Biological target: apoptosis-related protein in the transforming growth factor-β signaling pathway (ARTS) (human (endogenous in MDA-MB-231))
# Assay: affinity purification with mass spectrometry; co-IP of endogenous ARTS from MDA-MB-231 cells treated with PBS, DOX or DTX, then LC-MS/MS; proteins present in the DOX/DTX groups but absent in PBS
row,binding,Binder
1,binds,"Livin (BIRC7) (protein, UniProt Q96CA5 1-298) MGPKDSAKCLHRGPQPSHWAAGDGPTQERCGPRSLGSPVLGLDTCRAWDHVDGQILGQLRPLTEEEEEEGAGATLSRGPAFPGMGSEELRLASFYDWPLTAEVPPELLAAAGFFHTGHQDKVRCFFCYGGLQSWKRGDDPWTEHAKWFPSCQFLLRSKGRDFVHSVQETHSQLLGSWDPWEEPEDAAPVAPSVPASGYPELPTPRREVQSESAQEPGGVSPAEAQRAWWVLEPPGARDVEAQLRRLQEERTCKVCLDRAVSIVFVPCGHLVCAECAPGLQLCPICRAPVRSRVRTFLS"
2,binds,"seven in absentia homolog 1 (SIAH1) (enzyme, UniProt Q8IUQ4 1-282) MSRQTATALPTGTSKCPPSQRVPALTGTTASNNDLASLFECPVCFDYVLPPILQCQSGHLVCSNCRPKLTCCPTCRGPLGSIRNLAMEKVANSVLFPCKYASSGCEITLPHTEKADHEELCEFRPYSCPCPGASCKWQGSLDAVMPHLMHQHKSITTLQGEDIVFLATDINLPGAVDWVMMQSCFGFHFMLVLEKQEKYDGHQQFFAIVQLIGTRKQAENFAYRLELNGHRRRLTWEATPRSIHEGIATAIMNSDCLVFDTSIAQLFAENGNLGINVTISMC"
